The supplement of paper PMC7125110
± gives the standard error. Many of these values have a large error.

B1: glmS ribozyme (parent)
chain: AUAAAAGCGCCAGAACUACAGAAAUGUAGUUGACGAGGAGGAGGUUUAUCGAAUUUUCGGCGGAUGCCUCCAAA

Variants of: B1
Assay: self-cleavage kobs at 640 uM GlcN6P; higher = faster cleavage; RNA array
Conditions: with glucosamine-6-phosphate
Outline: (§1)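 A hybridised Cy3 probe tracked barcoded ribozyme variants, transcribed in situ by E. coli RNA polymerase on sequenced MiSeq chips, at 37 °C. The variants received 40 μM to 10 mM glucosamine-6-phosphate in HEPES/KCl/Mg(OAc)2 buffer. kobs came from decay fits and kcat and KM from weighted Michaelis–Menten fits.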

Row | Variant | self-cleavage kobs at 640 uM GlcN6P
1 | AUAAAAGCGCUAGAACUACAGAAAUGUAGUUGACGAGGAGGAGGUUUAUCGAAUUUUCGGCGGAUUCCUCCAAA [C11U G66U] | 2.28e-05 ± 2e-05 s⁻¹
2 | AUAAAAGCGCGAGAACUACAGAAAUGUAGUUGACGAGGAGGAGGUUUAUCGAAUUUUCGGCGGAUGCAUCCAAA [C11G C68A] | 1.96e-05 ± 1.6e-05 s⁻¹
3 | AUAAAAGCGCCAGAUAUACAGAAAUGUAGUUGACGAGGAGGAGGUUUAUCGAAUUUUCGGCGGAUGCCUGCAAA [A15U C16A C70G] | 5.35e-05 ± 2.8e-05 s⁻¹
4 | AUAAAAGCGCCACAUCUACAGAAAUGUAGUUGACGAGGAGGAGGUUUAUCGUAUUUUCGGCGGAUGACUCGAAA [G13C A15U A52U C67A C71G] | 5.97e-05 ± 3.2e-05 s⁻¹
5 | AUAAAAGCGCCAGCACUACAGAAAUGUAGUUGACGGGGAGGAGGUUUAUGGAAUUUUCGGCGGAUGCCUCCAAA [A14C A36G C50G] | 3e-05 ± 2.6e-05 s⁻¹
6 | AUAAAAGCGCCAGUACUACAGAAAUGUAGUUGACGAGGAGGAGGUUUAUCGAAUUUUCGGCGGAUGCAUCCAAA [A14U C68A] | 2.01e-05 ± 1.5e-05 s⁻¹
7 | AUAAAAGCGCCAAAACUACAGAAAUGUAGUUGACGAGGAGGAGGGUUAUCGAAUUUUCGGCGGAUGCCUCCAAA [G13A U45G] | 1.51e-05 ± 9.7e-06 s⁻¹
8 | AUAAAAGCGUCAGAACUACAGAAAUGUAGUUGACGAGGAGGAGGUUUAUCGAAUUUUCGGCGUAUGGCUCCAAA [C10U G63U C67G] | 2.66e-05 ± 1.9e-05 s⁻¹
9 | AUAAAAGCGCCAUAACUACAGAAAUGUAGUUGACGAGGAGGAGGUUUAUCGAAUUUUCGGCGGAAGCCUCCAAA [G13U U65A] | 3.06e-05 ± 2.7e-05 s⁻¹
10 | AUAAAAGCGCCAGUUUUACAGAAAUGUAGUUGACGAGGAGGAGGUUUAUCGAAUUUUCGGCGGAUGGCUCCAAA [A14U A15U C16U C67G] | 6.39e-05 ± 4.5e-05 s⁻¹
11 | AUAAAAGCGCCAGUACUACAGAAAUGUAGUUGACGAGGAGGAGGUUUAUCGAAUUUUCGGCUGAUGCCUGGAAA [A14U G62U C70G C71G] | 4.87e-05 ± 3.4e-05 s⁻¹
12 | AUAAAAGCGCCACAAAUACAGAAAUGUAGUUGACGAGGAGGGGGUUUAUCGAAUUUUCGGCGGAUGCCUCCAAA [G13C C16A A42G] | 3.59e-05 ± 2.4e-05 s⁻¹
13 | AUAAAAGCGCCAGAUCUACAGAAAUGUAGUUGACGAGGAGGGGGUUUAUCGAAUUUUCGGCGGAUGCCGCCAAA [A15U A42G U69G] | 4.13e-05 ± 2.8e-05 s⁻¹
14 | AUAAAAGCGCCAUAACUACAGAAAUGUAGUUGACGAGGACGAGGUUUAUCGAAUUUUCGGCGGAUGCCUCCAAA [G13U G40C] | 4.29e-05 ± 2.4e-05 s⁻¹
15 | AUAAAAGCGCCAGAAAUACAGAAAUGUAGUUGACGAGGGGGAGGUUUAUCGAAUUUUGGGCGGAUGGCUCCAAA [C16A A39G C58G C67G] | 4.85e-05 ± 2.4e-05 s⁻¹
16 | AUAAAAGCGCCAGCACUACAGAAAUGUAGUUGACGAGGAGGAGGUUUAUCGAAAUUUCGGCGGAUGAAUCCAAA [A14C U54A C67A C68A] | 3.25e-05 ± 2.3e-05 s⁻¹

Row | Variant | self-cleavage kobs at 640 uM GlcN6P
17 | AUAAAAGCGCCCGAACUACAGAAAUGUAGUUGACGAGGAGGAGGUUUAUCGAAUUUUCGGCGGAUGCCUGUAAA [A12C C70G C71U] | 3.75e-05 ± 2e-05 s⁻¹
18 | AUAAAAGCGCCAGAUCUACAGAAAUGUAGUUGACGGGGAGGAGGUUUAUCGAAUUUUCGGCGGAUGCCCACAAA [A15U A36G U69C C70A] | 2.37e-05 ± 1.8e-05 s⁻¹
19 | AUAAAAGCGCCAGAAAUACAGAAAUGUAGUUUAAGGGGAGGAGGUUUAUCGAAUUUUCGGCGGAUGCCUGCAAA [C16A G32U C34A A36G C70G] | 2.73e-05 ± 2.5e-05 s⁻¹
20 | AUAAAAGCGCCAAAACUACAGAAAUGUAGUCGACGUGGAGGAGGUUUAUCGAAUUUUAGCCAGAUGGCUCCAAA [G13A U31C A36U C58A G60C G62A C67G] | 0.000141 ± 7.2e-05 s⁻¹
21 | AUAAAAGCGCCAGAUCUACAGAAAUGUAGUAGACGAGGAGGAGGUUUAUCGAAUUUUCGGCGGAUGCCUACAAA [A15U U31A C70A] | 2.67e-05 ± 2.6e-05 s⁻¹
22 | AUAAAAGCGCCGGAACUACAGAAAUGUAGGUGACGAGGAGGAGGUUUAUCGAAUUUUCGGCGGAUGCCUCCAAA [A12G U30G] | 1.79e-05 ± 9.4e-06 s⁻¹
23 | AUAAAAGCGCCAGUACUACAGAAAUGUAGUUGACGAGGAGGAGGUUUAUCGAAUUUUUGGCGGAUGCCUCCAAA [A14U C58U] | 1.59e-05 ± 1.2e-05 s⁻¹
24 | AUAAAAGCGCCUGAACUACAGAAAUGUAGUUGACGAGGAGGAGUUUUAUCGAAUUUUCGGCGGAUGCCUUCAAA [A12U G44U C70U] | 3.82e-05 ± 2.2e-05 s⁻¹
25 | AUAAAAGCGCUAGAGCUACAGAAAUGUAGUUGACGAGGAGGAAGUUUAUCGAAUUUUCGGCGGAUGGCUCCAAA [C11U A15G G43A C67G] | 1.54e-05 ± 1.5e-05 s⁻¹
26 | AUAAAAGCGCCUGACCUACAGAAAUGUAGUUGACGAGGAGGAGUUUUAUCGAAUUUUCGGCGGAUGCCUCCAAA [A12U A15C G44U] | 2.84e-05 ± 1.8e-05 s⁻¹
27 | AUAAAAGCGCCUGAACUACAGAAAUGUAGUUGACGAGGAGUAGGUCUAUCGAAUUUUCGGCGGAUGCCUCCAAA [A12U G41U U46C] | 2.78e-05 ± 2.2e-05 s⁻¹
28 | AUAAAAGCGCCAGCACUACAGAAAUGUAGUUGACGAGGAGGAGGUUUAUCGAGUUUUAGGCGGAUGCCUGCAAA [A14C A53G C58A C70G] | 4.92e-05 ± 2.6e-05 s⁻¹
29 | AUAAAAGCGCCAGCACUACAGAAAUGUACUUGACGAGGAGGAGGUUUAUCGAAUUUUCGGCGGGUGCCUCCAAA [A14C G29C A64G] | 4.77e-05 ± 2.4e-05 s⁻¹
30 | AUAAAAGCGCGAGAACUACAGAAAUGUAGUUGACGAGGAGGAGGUUUAUCGAAUUUUCGGUGGAUGCCGCCAAA [C11G C61U U69G] | 3e-05 ± 2.5e-05 s⁻¹
31 | AUAAAAGCGCCGGAACUACAGAAAUGUAGUUGACGAGGAGGAGGUUUAUCGAAUUUUCGGCGGAGGACUCCAAA [A12G U65G C67A] | 2.78e-05 ± 1.6e-05 s⁻¹
32 | AUAAAAGCGUCAGAACUACAGAAAUGUAGUUGACGAGGAGGAGGUUUAUCGAAUUUUCGGCGGGUGCCUCCAAA [C10U A64G] | 1.9e-05 ± 1.1e-05 s⁻¹

Rewritten in CSV form: entries from further up
Row,Variant,self-cleavage kobs at 640 uM GlcN6P
18,AUAAAAGCGCCAGAUCUACAGAAAUGUAGUUGACGGGGAGGAGGUUUAUCGAAUUUUCGGCGGAUGCCCACAAA [A15U A36G U69C C70A],2.37e-05 ± 1.8e-05 s⁻¹
26,AUAAAAGCGCCUGACCUACAGAAAUGUAGUUGACGAGGAGGAGUUUUAUCGAAUUUUCGGCGGAUGCCUCCAAA [A12U A15C G44U],2.84e-05 ± 1.8e-05 s⁻¹

Variants of: B1
Assay: self-cleavage kobs at 10000 uM GlcN6P; higher = faster cleavage; RNA array
Conditions: with glucosamine-6-phosphate
Outline: as §1

Row | Variant | self-cleavage kobs at 10000 uM GlcN6P
33 | AUAAAAGCGCCAGAUCUACAGAAAUGUAGUUGACGGGGAGGAGGUUUAUCGAAUUUUCGGCGGAUGCCCACAAA [A15U A36G U69C C70A] | 2.03e-05 ± 1.9e-05 s⁻¹
34 | AUAAAAGCGCCAAAACUACAGAAAUGUAGUCGACGUGGAGGAGGUUUAUCGAAUUUUAGCCAGAUGGCUCCAAA [G13A U31C A36U C58A G60C G62A C67G] | 3.34e-05 ± 1.7e-05 s⁻¹

Variants of: B1
Assay: self-cleavage kobs at 160 uM GlcN6P; higher = faster cleavage; RNA array
Conditions: with glucosamine-6-phosphate
Outline: as §1

Row | Variant | self-cleavage kobs at 160 uM GlcN6P
35 | AUAAAAGCGCCAGAUCUACAGAAAUGUAGUAGACGAGGAGGAGGUUUAUCGAAUUUUCGGCGGAUGCCUACAAA [A15U U31A C70A] | 3.08e-05 ± 2.2e-05 s⁻¹
36 | AUAAAAGCGCCAGUACUACAGAAAUGUAGUUGACGAGGAGGAGGUUUAUCGAAUUUUUGGCGGAUGCCUCCAAA [A14U C58U] | 2.45e-05 ± 2e-05 s⁻¹

Variants of: B1
Assay: self-cleavage kobs at 2500 uM GlcN6P; higher = faster cleavage; RNA array
Conditions: with glucosamine-6-phosphate
Outline: as §1

Row | Variant | self-cleavage kobs at 2500 uM GlcN6P
37 | AUAAAAGCGCCAGCACUACAGAAAUGUAGUUGACGAGGAGGAGGUUUAUCGAGUUUUAGGCGGAUGCCUGCAAA [A14C A53G C58A C70G] | 4.5e-05 ± 3e-05 s⁻¹
